According to patent US20210087295A1 (University of Pennsylvania, published 2021):

Target: T1, human fibroblast activation protein (FAP) (human, UniProt Q12884 1-760)
T1 sequence (looked up): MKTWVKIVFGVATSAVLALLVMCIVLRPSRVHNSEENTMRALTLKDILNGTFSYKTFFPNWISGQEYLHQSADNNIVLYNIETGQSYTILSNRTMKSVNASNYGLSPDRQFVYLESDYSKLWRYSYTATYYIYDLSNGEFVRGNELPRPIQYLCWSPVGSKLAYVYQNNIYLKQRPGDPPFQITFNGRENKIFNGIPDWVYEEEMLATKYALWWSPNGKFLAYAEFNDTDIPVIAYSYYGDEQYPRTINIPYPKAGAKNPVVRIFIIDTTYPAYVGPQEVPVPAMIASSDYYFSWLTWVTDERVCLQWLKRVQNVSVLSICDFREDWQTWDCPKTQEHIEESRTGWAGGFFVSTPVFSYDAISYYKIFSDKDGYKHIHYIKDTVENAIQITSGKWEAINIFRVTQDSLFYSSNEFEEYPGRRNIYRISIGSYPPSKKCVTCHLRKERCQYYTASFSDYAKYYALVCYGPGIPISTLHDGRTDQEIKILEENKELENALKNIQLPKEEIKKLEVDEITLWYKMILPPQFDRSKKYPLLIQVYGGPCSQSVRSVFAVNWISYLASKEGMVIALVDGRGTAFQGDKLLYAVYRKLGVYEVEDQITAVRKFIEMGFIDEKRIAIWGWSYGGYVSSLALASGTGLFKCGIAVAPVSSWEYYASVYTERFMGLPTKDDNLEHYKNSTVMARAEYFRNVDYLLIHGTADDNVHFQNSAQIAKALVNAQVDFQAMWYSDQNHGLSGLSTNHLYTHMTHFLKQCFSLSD
Assay: cell-based or functional assay

B1: 4G5_L2HG_CD8H_BB_CD3Z CAR (other)
chain: GSQIVLTQSPALMSASPGEKVTMTCTASSSVSYMYWYQQKPRSSPKPWIFLTSNLASGVPARFSGRGSGTSFSLTISSMEAEDAATYYCQQWSGYPPITFGSGTKLEIKGGGGSGGGGSGGGGSQVQLQQPGAELVKPGASVKLSCKASGYTITSYSLHWVKQRPGQGLEWIGEINPANGDHNFSEKFEIKATLTVDSSSNTAFMQLSRLTSEDSAVYYCTRLDDSRFHWYFDVWGAGTTVTVSSSGTTTPAPRPPTPAPTIASQPLSLRPEACRPAAGGAVHTRGLDFACDIYIWAPLAGTCGVLLLSLVITLYCKRGRKKLLYIFKQPFMRPVQTTQEEDGCSCRFPEEEEGGCELRVKFSRSADAPAYKQGQNQLYNELNLGRREEYDVLDKRRGRDPEMGGKPRRKNPQEGLYNELQKDKMAEAYSEIGMKGERRRGKGHDGLYQGLSTATKDTYDALHMQALPPR
cytotoxicity and IFNγ production in co-culture with HOS cells (very low FAP): 20 effector to target ratio
